Several values for one entry are separate records, joined by “and”; a condition that tells them apart may be missing. Equal entries are not always repeated.
Assay: Potentiometric titration of NiR variants, midpoint potential of the type-1 site
Type: physicochemical, A. faecalis S-6
Conditions: versus NHE, without ligands, 298 K, 100 mM potassium phosphate pH 7.0; listed as wt NiR

B1: wild-type Cu-containing nitrite reductase from Alcaligenes faecalis S-6 (protein)
chain: QGAVRKATAAEIAALPRQKVELVDPPFVHAHSQVAEGGPKVVEFTMVIEEKKIVIDDAGTEVHAMAFNGTVPGPLMVVHQDDYLELTLINPETNTLMHNIDFHAATGALGGGGLTEINPGEKTILRFKATKPGVFVYHCAPPGMVPWHVVSGMNGAIMVLPREGLHDGKGKALTYDKIYYVGEQDFYVPRDENGKYKKYEAPGDAYEDTVKVMRTLTPTHVVFNGAVGALTGDKAMTAAVGEKVLIVHSQANRDTRPHLIGGHGDYVWATGKFNTPPDVDQETWFIPGGAAGAAFYTFQQPGIYAYVNHNLIEAFELGAAAHFKVTGEWNDDLMTSVLAPSGT
**Q.** For B1, which “midpoint potential of the type-1 site” value is on record?
**A.** 213+5 mV and 213 mV
